Patent US20230322941A1
No constants are given. Whether binding was seen depends on the method and setting. Some results given as binding are weak or reduced against the parent protein; the word gives no strength.

Sequences of proteins named here, by UniProt entry; tags and fusion partners are left off. A change or cut given only in a name is not applied to a line headed by its entry.
UniProt P25942: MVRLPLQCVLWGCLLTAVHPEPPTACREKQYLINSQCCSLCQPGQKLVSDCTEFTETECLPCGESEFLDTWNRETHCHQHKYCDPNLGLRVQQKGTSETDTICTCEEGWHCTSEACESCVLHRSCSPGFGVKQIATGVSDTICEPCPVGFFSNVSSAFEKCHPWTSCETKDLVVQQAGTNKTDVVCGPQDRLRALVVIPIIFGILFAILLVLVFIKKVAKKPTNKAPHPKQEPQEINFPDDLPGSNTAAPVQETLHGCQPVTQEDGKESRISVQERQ

molecular target: human-CD40 monomer (human) (UniProt P25942); experiment: SPR 2 pt screen

Binder	binding
humanized Y1238 hz40 (hz-HC8/hz-LC5) (antibody, IgG1, V domains shown) VH: QVQLVQSGAEVVKPGASVKVSCKASGYAFTNYLIEWVRQRPGQGLEWMGVINPGSGGTNYNEKFKGRVTLTADKSSSTAYMQLSRLRSDDTAVYFCARSQLGRRFDYWGQGTLVTVSS VL: DIQMTQSPSSLSASVGDRVTITCKASQDVRTGVAWYQQKPGQAPKLLIYSASYRNTGVPSRFSGSRSGTDFTFTISSLQPEDIAVYYCQQHYSPPYTFGGGTKVEIK	binds
humanized Y1238 hz41 (hz-HC9/hz-LC1) (antibody, IgG1, V domains shown) VH: QVQLVQSGAEVVKPGASVKVSCKASGYAFTNYLIEWVRQRPGQGLEWMGVINPGSGGTNYNEKFKGRVTLTADKSSSTAYMQLSRLRSDDTAVYFCARSQLGRRFDYWGQGTTVTVSS VL: DIQMTQSPSSLSASVGDRVTITCKASQDVRTGVAWYQQKPGKAPKLLIYSASYRNTGVPSRFSGSGSGTDFTFTISSLQPEDIATYYCQQHYSPPYTFGGGTKVEIK	binds
humanized Y1238 hz42 (hz-HC9/hz-LC2) (antibody, IgG1, V domains shown) VH: QVQLVQSGAEVVKPGASVKVSCKASGYAFTNYLIEWVRQRPGQGLEWMGVINPGSGGTNYNEKFKGRVTLTADKSSSTAYMQLSRLRSDDTAVYFCARSQLGRRFDYWGQGTTVTVSS VL: DIQMTQSPSSLSASVGDRVTITCKASQDVRTGVAWYQQKPGKAPKLLIYSASYRNTGVPSRFSGSRSGTDFTFTISSLQPEDIATYYCQQHYSPPYTFGGGTKVEIK	binds
humanized Y1238 hz43 (hz-HC9/hz-LC3) (antibody, IgG1, V domains shown) VH: QVQLVQSGAEVVKPGASVKVSCKASGYAFTNYLIEWVRQRPGQGLEWMGVINPGSGGTNYNEKFKGRVTLTADKSSSTAYMQLSRLRSDDTAVYFCARSQLGRRFDYWGQGTTVTVSS VL: DIQMTQSPSSLSASVGDRVTITCKASQDVRTGVAWYQQKPGQSPKLLIYSASYRNTGVPSRFSGSRSGTDFTFTISSLQPEDIAVYYCQQHYSPPYTFGGGTKVEIK	binds
humanized Y1238 hz44 (hz-HC9/hz-LC4) (antibody, IgG1, V domains shown) VH: QVQLVQSGAEVVKPGASVKVSCKASGYAFTNYLIEWVRQRPGQGLEWMGVINPGSGGTNYNEKFKGRVTLTADKSSSTAYMQLSRLRSDDTAVYFCARSQLGRRFDYWGQGTTVTVSS VL: DIQMTQSPSSLSASVGDRVTITCKASQDVRTGVAWYQQKPGQSPKLLIYSASYRNTGVPSRFSGSRSGTDFTFTISSLQAEDIAVYYCQQHYSPPYTFGGGTKVEIK	binds
humanized Y1238 hz45 (hz-HC9/hz-LC5) (antibody, IgG1, V domains shown) VH: QVQLVQSGAEVVKPGASVKVSCKASGYAFTNYLIEWVRQRPGQGLEWMGVINPGSGGTNYNEKFKGRVTLTADKSSSTAYMQLSRLRSDDTAVYFCARSQLGRRFDYWGQGTTVTVSS VL: DIQMTQSPSSLSASVGDRVTITCKASQDVRTGVAWYQQKPGQAPKLLIYSASYRNTGVPSRFSGSRSGTDFTFTISSLQPEDIAVYYCQQHYSPPYTFGGGTKVEIK	binds
humanized Y1238 hz46 (hz-HC10/hz-LC1) (antibody, IgG1, V domains shown) VH: QVQLVQSGAEVKKPGASVKVSCKASGYAFTNYLIEWVRQRPGQGLEWMGVINPGSGGTNYNEKFKGRVTMTRDKSISTAYMELSRLRSDDTAVYYCARSQLGRRFDYWGQGTLVTVSS VL: DIQMTQSPSSLSASVGDRVTITCKASQDVRTGVAWYQQKPGKAPKLLIYSASYRNTGVPSRFSGSGSGTDFTFTISSLQPEDIATYYCQQHYSPPYTFGGGTKVEIK	binds
humanized Y1238 hz47 (hz-HC10/hz-LC2) (antibody, IgG1, V domains shown) VH: QVQLVQSGAEVKKPGASVKVSCKASGYAFTNYLIEWVRQRPGQGLEWMGVINPGSGGTNYNEKFKGRVTMTRDKSISTAYMELSRLRSDDTAVYYCARSQLGRRFDYWGQGTLVTVSS VL: DIQMTQSPSSLSASVGDRVTITCKASQDVRTGVAWYQQKPGKAPKLLIYSASYRNTGVPSRFSGSRSGTDFTFTISSLQPEDIATYYCQQHYSPPYTFGGGTKVEIK	binds
humanized Y1238 hz48 (hz-HC10/hz-LC3) (antibody, IgG1, V domains shown) VH: QVQLVQSGAEVKKPGASVKVSCKASGYAFTNYLIEWVRQRPGQGLEWMGVINPGSGGTNYNEKFKGRVTMTRDKSISTAYMELSRLRSDDTAVYYCARSQLGRRFDYWGQGTLVTVSS VL: DIQMTQSPSSLSASVGDRVTITCKASQDVRTGVAWYQQKPGQSPKLLIYSASYRNTGVPSRFSGSRSGTDFTFTISSLQPEDIAVYYCQQHYSPPYTFGGGTKVEIK	binds
humanized Y1238 hz49 (hz-HC10/hz-LC4) (antibody, IgG1, V domains shown) VH: QVQLVQSGAEVKKPGASVKVSCKASGYAFTNYLIEWVRQRPGQGLEWMGVINPGSGGTNYNEKFKGRVTMTRDKSISTAYMELSRLRSDDTAVYYCARSQLGRRFDYWGQGTLVTVSS VL: DIQMTQSPSSLSASVGDRVTITCKASQDVRTGVAWYQQKPGQSPKLLIYSASYRNTGVPSRFSGSRSGTDFTFTISSLQAEDIAVYYCQQHYSPPYTFGGGTKVEIK	binds
humanized Y1238 hz50 (hz-HC10/hz-LC5) (antibody, IgG1, V domains shown) VH: QVQLVQSGAEVKKPGASVKVSCKASGYAFTNYLIEWVRQRPGQGLEWMGVINPGSGGTNYNEKFKGRVTMTRDKSISTAYMELSRLRSDDTAVYYCARSQLGRRFDYWGQGTLVTVSS VL: DIQMTQSPSSLSASVGDRVTITCKASQDVRTGVAWYQQKPGQAPKLLIYSASYRNTGVPSRFSGSRSGTDFTFTISSLQPEDIAVYYCQQHYSPPYTFGGGTKVEIK	binds
humanized Y1238 hz51 (hz-HC11/hz-LC1) (antibody, IgG1, V domains shown) VH: QVQLVQSGAEVKKPGASVKVSCKASGYAFTNYLIEWVRQRPGQGLEWMGVINPGSGGTNYNEKFKGRVTMTRDKSSSTAYMELSRLRSDDTAVYFCARSQLGRRFDYWGQGTLVTVSS VL: DIQMTQSPSSLSASVGDRVTITCKASQDVRTGVAWYQQKPGKAPKLLIYSASYRNTGVPSRFSGSGSGTDFTFTISSLQPEDIATYYCQQHYSPPYTFGGGTKVEIK	binds
humanized Y1238 hz52 (hz-HC11/hz-LC2) (antibody, IgG1, V domains shown) VH: QVQLVQSGAEVKKPGASVKVSCKASGYAFTNYLIEWVRQRPGQGLEWMGVINPGSGGTNYNEKFKGRVTMTRDKSSSTAYMELSRLRSDDTAVYFCARSQLGRRFDYWGQGTLVTVSS VL: DIQMTQSPSSLSASVGDRVTITCKASQDVRTGVAWYQQKPGKAPKLLIYSASYRNTGVPSRFSGSRSGTDFTFTISSLQPEDIATYYCQQHYSPPYTFGGGTKVEIK	binds
humanized Y1238 hz53 (hz-HC11/hz-LC3) (antibody, IgG1, V domains shown) VH: QVQLVQSGAEVKKPGASVKVSCKASGYAFTNYLIEWVRQRPGQGLEWMGVINPGSGGTNYNEKFKGRVTMTRDKSSSTAYMELSRLRSDDTAVYFCARSQLGRRFDYWGQGTLVTVSS VL: DIQMTQSPSSLSASVGDRVTITCKASQDVRTGVAWYQQKPGQSPKLLIYSASYRNTGVPSRFSGSRSGTDFTFTISSLQPEDIAVYYCQQHYSPPYTFGGGTKVEIK	binds
humanized Y1238 hz54 (hz-HC11/hz-LC4) (antibody, IgG1, V domains shown) VH: QVQLVQSGAEVKKPGASVKVSCKASGYAFTNYLIEWVRQRPGQGLEWMGVINPGSGGTNYNEKFKGRVTMTRDKSSSTAYMELSRLRSDDTAVYFCARSQLGRRFDYWGQGTLVTVSS VL: DIQMTQSPSSLSASVGDRVTITCKASQDVRTGVAWYQQKPGQSPKLLIYSASYRNTGVPSRFSGSRSGTDFTFTISSLQAEDIAVYYCQQHYSPPYTFGGGTKVEIK	binds
humanized Y1238 hz55 (hz-HC11/hz-LC5) (antibody, IgG1, V domains shown) VH: QVQLVQSGAEVKKPGASVKVSCKASGYAFTNYLIEWVRQRPGQGLEWMGVINPGSGGTNYNEKFKGRVTMTRDKSSSTAYMELSRLRSDDTAVYFCARSQLGRRFDYWGQGTLVTVSS VL: DIQMTQSPSSLSASVGDRVTITCKASQDVRTGVAWYQQKPGQAPKLLIYSASYRNTGVPSRFSGSRSGTDFTFTISSLQPEDIAVYYCQQHYSPPYTFGGGTKVEIK	binds
chimeric Y1238 supernatant (HC-Chim / LC-Chim) (antibody, V domains shown) VH: QVQLQQSGAELVRPGTSVKVSCKASGYAFTNYLIEWVKQRPGQGLEWIGVINPGSGGTNYNEKFKGKATLTADKSSSTAYMQLSSLTSDDSAVYFCARSQLGRRFDYWGQGTTLTVSS VL: DIVMTQSHKFMSTSVGDRVSITCKASQDVRTGVAWYQQKPGQSPKLLIYSASYRNTGVPDRFTGSRSGTDFTFTISSVQAEDLAVYYCQQHYSPPYTFGGGTKLEIK	binds
